Results taken from patent publication US20120231972A1, “Probe Compound for Detecting and Isolating Enzymes and Means and Methods Using the Same” (priority 2009, published 2012).
Some results were stated once for a whole list of compounds, not compound by compound. At least one compound was matched to its structure with a doubt left.

system: P. putida lysates; test: Reactome micro-array fluorescence with P. putida lysates; assay type: biochemical, P. putida KT2440; conditions: Cy3-linked metabolite on array

| Compound | positive signals in the micro-array (fluorescence values) |
| --- | --- |
| Nc1c(O)cccc1C(=O)O [3-hydroxyanthranilate] | up to 35512 |
| C=C/C=C(/O)C(=O)O [cis-2-hydroxypenta-2,4-dienoate] | up to 35512 |
| O=C(O)CC1(C(=O)O)C=CC(=O)O1 (centres unmarked) [γ-carboxymuconolactone] | up to 35512 |

system: KOL, VUL and L'A lysates; test: Reactome micro-array fluorescence with metagenome library lysates; assay type: biochemical; conditions: Cy3-linked metabolite on array

| Compound | positive signals in the micro-array (fluorescence values) |
| --- | --- |
| CC(Br)CCl (centres unmarked) [2-bromo-1-chloropropane] | up to 35512 |
| CC(=O)C(=O)[C@@H](O)CO [(S)-4,5-dihydroxypentan-2,3-dione] | up to 35512 |
| C[n+]1ccc(-c2cc[n+](C)cc2)cc1 [methyl viologen] | up to 35512 |
| CCCCCCCCCCC [undecane] | up to 35512 |
| phosphatidylinositol-4,5-bisphosphate | up to 35512 |
